The test system of this data set is PnWRKY9 (Panax notoginseng). The data set is described as follows: EMSA. As to conditions: LightShift Chemiluminescence EMSA kit (Pierce) standard procedure; pH and temperature not stated; recombinant protein; protein details: N-terminal His-tag (pET32a).

The exact form of at least one protein or probe is not confirmed. Negatives hold for the conditions tested.

Regarding “GAGTCTAAGGAGATGGTTGGATAATTGGGTGACCGATCGGAACTTGTTG (double strand) [PPnDEFL1 mutant W-box probe]”, the binding result is “no binding”.

The record behind these values is publication PMC9331302.
